These results are taken from article PMC5048297.

No constants are given. Whether binding was seen depends on the method and setting. Binding seen in cells or lysates may run through a third protein. Some entries that bind do so weakly or less than the wild type. For some of these results: Tags and fused reporters may be left off the sequences shown.

In assay [1] the target is T1, thioredoxin-1 (TRX-1), endogenous in RAW264.7 cells (mouse (endogenous in RAW264.7)) (UniProt P10639).
T1 sequence: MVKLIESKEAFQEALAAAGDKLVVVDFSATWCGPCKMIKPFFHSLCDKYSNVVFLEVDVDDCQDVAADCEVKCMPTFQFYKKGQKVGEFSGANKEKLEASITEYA
Nature of the assay: co-IP; RAW264.7 total cell lysates after LPS stimuli; IP with anti-TRX-1 antibody and protein A/G agarose; immunoblot for p40phox, gp91phox and TRX-1. A general note: In western blotting, separated proteins are transferred to a membrane and probed.

In assay [2] the target is T2, p40phox-GFP (transfected in HEK293T cells) (UniProt Q15080).
T2 sequence: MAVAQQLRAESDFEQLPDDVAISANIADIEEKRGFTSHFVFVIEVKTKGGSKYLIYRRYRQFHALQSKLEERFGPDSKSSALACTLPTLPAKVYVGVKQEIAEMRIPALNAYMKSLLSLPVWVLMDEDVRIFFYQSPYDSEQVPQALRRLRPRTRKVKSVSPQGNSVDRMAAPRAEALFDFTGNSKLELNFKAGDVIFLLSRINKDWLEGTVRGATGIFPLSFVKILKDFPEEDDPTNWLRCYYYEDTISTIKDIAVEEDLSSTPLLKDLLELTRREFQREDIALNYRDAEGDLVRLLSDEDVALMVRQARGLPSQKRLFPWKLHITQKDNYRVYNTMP
Nature of the assay: co-IP; HEK293T cells transfected with p40phox-GFP and either native or CC32/35SS TRX-1; IP with GFP-Trap A (anti-GFP); immunoblot for GFP and TRX-1.

In assay [3] the target is T3, Nox2-(gp91phox)-myc (transfected in HEK293T cells) (UniProt P04839).
T3 sequence: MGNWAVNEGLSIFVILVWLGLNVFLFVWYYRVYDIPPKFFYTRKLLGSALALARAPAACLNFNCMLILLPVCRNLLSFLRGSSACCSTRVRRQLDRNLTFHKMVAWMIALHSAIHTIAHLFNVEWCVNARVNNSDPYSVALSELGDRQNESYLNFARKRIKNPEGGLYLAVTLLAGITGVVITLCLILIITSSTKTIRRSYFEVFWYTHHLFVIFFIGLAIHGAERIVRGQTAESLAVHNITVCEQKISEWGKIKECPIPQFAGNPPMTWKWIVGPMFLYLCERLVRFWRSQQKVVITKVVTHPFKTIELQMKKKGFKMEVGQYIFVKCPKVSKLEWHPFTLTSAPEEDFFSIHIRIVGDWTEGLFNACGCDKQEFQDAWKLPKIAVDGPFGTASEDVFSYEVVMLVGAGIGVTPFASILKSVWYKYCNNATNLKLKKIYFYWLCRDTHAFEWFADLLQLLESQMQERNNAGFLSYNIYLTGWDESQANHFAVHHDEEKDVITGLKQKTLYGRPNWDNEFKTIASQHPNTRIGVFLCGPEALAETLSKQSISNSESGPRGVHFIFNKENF
Nature of the assay: co-IP; HEK293T cells transfected with Nox2-(gp91phox)-myc and native TRX-1; IP with anti-myc immunoprecipitation kit; immunoblot for TRX-1.

B1: p40phox, endogenous in RAW264.7 cells (protein, UniProt P97369 1-339)
chain: MALAQQLRSESDFEQLPDDVAVSANIADIEEKRGFTSHFVFVIEVKTKGGSKYLIYRRYRQFYALQSKLEERFGPESKNSPFTCSLPTLPAKVYMGAKQEIAETRIPALNAYMKNLLSLPVCVLMDPDVRIFFYQSAYDAEQVPQALRRLRPRTRKIKGVSPQGAIMDRMEAPRAEALFDFTGNSKLELSFKAGDVIFLLSKINKDWLEGTSQGATGIFPGSFVKILKDFPEDEDTTNWLRCYFYEDTGKTIKDIAVEEDLSSTPLFKDLLALMRREFQREDIALSYQDAEGDLVRLLSDEDVGLMVKQARGLPSQKRLFPWKLHVTQKDNYSVYNTVP
Consider B1, for which the binding entry in assay [1] is on record as “binds”.

B2: native TRX-1 (transfected in HEK293T cells) (protein, UniProt P10599 1-105)
chain: MVKQIESKTAFQEALDAAGDKLVVVDFSATWCGPCKMIKPFFHSLSEKYSNVIFLEVDVDDCQDVASECEVKCMPTFQFFKKGQKVGEFSGANKEKLEATINELV
For B2, the binding entry in assay [2] is on record as “binds”; in assay [3], “no binding”.

B3: mutated CC32/35SS TRX-1 (transfected in HEK293T cells) (protein, UniProt P10599 1-105)
chain: MVKQIESKTAFQEALDAAGDKLVVVDFSATWSGPSKMIKPFFHSLSEKYSNVIFLEVDVDDCQDVASECEVKCMPTFQFFKKGQKVGEFSGANKEKLEATINELV
As for B3, the binding result in assay [2] is “no binding”.
